The results in this text go back to PubChem BioAssay AID493014 (National Center for Advancing Translational Sciences (NCATS), 2011).

The assay can be described thus: qHTS Assay to Find Inhibitors of Chronic Active B-Cell Receptor Signaling. The following applies: ABC-DLBCL IkBa-CBG/CBR reporter, luminescence ratio (green luciferase fused to IkBa over red control in TMD8 lymphoma cells), 4 h. The procedure, abridged:
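TMD8 ABC-DLBCL cells carrying doxycycline-inducible green luciferase fused to IkappaBalpha plus unfused red luciferase were exposed to compounds (up to 46 uM) for 4 hrs at 37C. Activity came from the overlap-corrected green/red luminescence ratio.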
(In general: In qHTS, concentration-response curves come from the screen itself.)

The mark [1] stands for this setting: measured here: CBR red luminescence, cell number.
Setting [2] is: measured here: IkBa-CBG green luminescence.

The list shows a part of the results. Further columns of the screen follow, without active or inactive calls. Compounds called inactive in the main read-out are mostly missing here. The note in brackets gives the kind of curve behind each potency; many fits are weak.

As usually defined, the AC50 is the concentration giving half of the maximal activity seen. Regarding `O=C(C#Cc1ccccc1)c1ccc([N+](=O)[O-])cc1`, under setting [1], the half-maximal activity concentration (AC50) was 18.4 µM [rising, partial curve, poor fit].

On to `O=C(CN1CCN(c2ccccc2O)CC1)NC(c1ccccc1)c1ccccc1`, for which the AC50 under setting [1] is 29.1 µM [falling, single point].

With `CCN=C(NS(=O)(=O)c1ccc(Br)cc1)c1ccc(Cl)cc1`, the half-maximal activity concentration (AC50) under setting [1] is 17.8 µM [falling, single point].

For `Cc1c(Cl)cccc1NCC(=O)Nc1ccc(Cl)cc1F`, under setting [1], the concentration at half-maximal activity (AC50) was 8.2 µM [falling, partial curve].

Consider `Cc1ccc(S(=O)(=O)N(C)CC(=O)NCC(c2ccco2)N(C)C)cc1` (configuration not stated), for which the AC50 under setting [1] was 29.1 µM [rising, single point].

Take `O=C(NNS(=O)(=O)c1ccc(Cl)cc1)c1cnn(-c2ccccc2)c1-n1cccc1`: the AC50 under setting [1] is 14.1 µM [falling, partial curve, poor fit].

`CCc1ccc(N2C(=O)c3sc4nnc(-c5ccccc5)c(=O)n4c3C2=O)cc1`: the half-maximal activity concentration (AC50) under setting [1] was 23.1 µM [rising, single point].

On to `Oc1ccc(N=Nc2cccc(C(F)(F)F)c2)cc1C=Nc1ccc(N2CCOCC2)cc1`, for which the AC50 under setting [1] is 13 µM [rising, partial curve, poor fit].

For `COc1ccccc1-c1csc(NC(=O)c2ccc(N3C(=O)CCC3=O)cc2)n1`, under setting [1], the half-maximal activity concentration (AC50) is 10 µM [falling, partial curve].

Take `Cc1cc(C)c(C)c(C(=O)COC(=O)CNC(=O)CNC(=O)c2ccco2)c1C`: the half-maximal activity concentration (AC50) under setting [1] was 12.6 µM [rising, single point].

In the case of `N#C/C(=C\c1ccc2c(c1)OCCO2)C(=O)Nc1nccs1`, under setting [1], the AC50 is 22.4 µM [falling, single point].

`C/C(=N\NC(=S)Nc1c(C)cccc1C)c1cc2ccccc2o1`: the half-maximal activity concentration (AC50) under setting [1] is 6.51 µM [rising, single point].

`Cc1ccc(SCc2c(-c3ccccc3)nn(C)c2Cl)cc1`: the concentration at half-maximal activity (AC50) under setting [1] is 29.1 µM [rising, single point].

Turning to `COc1ccc(Cl)cc1NC(=O)NCc1cccnc1`, the concentration at half-maximal activity (AC50) under setting [1] was 8.91 µM [rising, partial curve, poor fit].

For `O=C(CCC1N=C2c3ccccc3N=C(SCC(=O)NCC3CCCO3)N2C1=O)NCc1ccc(F)cc1` (configuration not stated), the AC50 under setting [1] is 0.355 µM [falling, partial curve, poor fit].

Take `CCn1c(SCC(=O)Nc2oc(-c3ccccc3)c(-c3ccccc3)c2C#N)nnc1-c1ccco1`: the half-maximal activity concentration (AC50) under setting [1] was 29.1 µM [falling, single point].

As to `CN(C)CCCNc1nc(N)c([N+](=O)[O-])c(NCc2ccccc2)n1`, the AC50 under setting [1] is 25.1 µM [falling, partial curve].

As to `O=C(COc1ccc2ccccc2c1)NCCNC(=O)COc1ccc2ccccc2c1`, the concentration at half-maximal activity (AC50) under setting [1] is 2.59 µM [rising, partial curve, poor fit].

On to `CCN(CC(=O)Nc1ccc(NC(C)=O)cc1)C(=O)c1sc2nc3n(c(=O)c2c1C)CCC3`, for which, under setting [1], the AC50 was 0.0291 µM [rising, full curve, poor fit].

As to `O=C(N/N=C/c1ccc(O)cc1)c1cc(-c2ccccc2)nc2ccccc12`, the AC50 under setting [1] was 15.8 µM [falling, partial curve, poor fit].

On to `CCC(C)(C)n1nnnc1C(c1ccc(C)cc1)N(Cc1ccco1)Cc1cccs1` (configuration not stated), for which the AC50 under setting [1] is 7.31 µM [falling, single point].

Take `Cc1nn(CC(=O)NCc2cccc3ccccc23)c(=O)c2ccccc12`: the AC50 under setting [1] was 11.2 µM [rising, partial curve, poor fit].

With `O=C(Nc1ccc(Cl)c(S(=O)(=O)N2CCOCC2)c1)c1ccc2c(c1)OCCO2`, the AC50 under setting [1] is 35.5 µM [falling, single point].

Consider `CCc1ccc(C(=O)Cn2ncc(Cl)c(Cl)c2=O)cc1`, for which, under setting [1], the concentration at half-maximal activity (AC50) is 15.8 µM [falling, single point].

As for `Cc1nnsc1-c1nc2ccccc2[nH]1`, the AC50 under setting [1] is 35.5 µM [falling, single point].

As to `COc1cc(OC)cc(C(=O)Nc2nc(CC(=O)NC(C)c3ccccc3)cs2)c1` (configuration not stated), the half-maximal activity concentration (AC50) under setting [1] is 16.4 µM [falling, single point].

With `CC(=O)Nc1cc(-n2cnnn2)ccc1C`, the AC50 under setting [1] is 0.112 µM [falling, full curve, poor fit].

Consider `O=C(O)c1cc(NCc2ccccc2C(F)(F)F)ccc1N1CCOCC1`, for which the AC50 under setting [1] was 25.1 µM [falling, partial curve, poor fit].

Consider `CCCCCCSc1nsc(NC(=O)CC(C)C)n1`, for which, under setting [1], the half-maximal activity concentration (AC50) was 8.2 µM [rising, partial curve, poor fit].

Take `Cc1ccc(C)c(-c2cc(C(=O)NCc3cccs3)c3ccccc3n2)c1`: the concentration at half-maximal activity (AC50) under setting [1] was 1.58 µM [rising, partial curve, poor fit].

Consider `O=C(O)CSc1cc(NS(=O)(=O)c2ccc(Br)cc2)c2ccccc2c1O`, for which, under setting [1], the AC50 was 22.4 µM [falling, single point].

On to `O=[N+]([O-])c1ccc(NCCN2CCOCC2)c([N+](=O)[O-])c1`, for which the AC50 under setting [1] is 10 µM [rising, partial curve, poor fit].

On to `CCOC(=O)Cc1csc(NC(=O)c2ccc(F)cc2)n1`, for which, under setting [1], the AC50 was 35.5 µM [falling, single point].

As for `CCOC(=O)c1ccccc1N=Cc1c(O)c2ccccc2oc1=O`, the half-maximal activity concentration (AC50) under setting [1] is 2.51 µM [falling, full curve].

With `Cc1oc2ccc(OCc3ccc(F)cc3Cl)cc2c1C(=O)O`, the AC50 under setting [1] is 12.6 µM [rising, partial curve, poor fit].

For `O=C(Nc1ncc2c(n1)-c1ccccc1OC2)c1ccc(F)cc1`, under setting [1], the concentration at half-maximal activity (AC50) is 10 µM [falling, partial curve].

Turning to `Cc1c(C(=N)C(C#N)C#N)c(=N)oc2c1ccc1ccccc12`, the AC50 under setting [1] was 11.2 µM [rising, partial curve].

On to `CCCCOc1ccc(C(=O)NCC2(c3ccc(OC)cc3)CCOCC2)cc1`, for which, under setting [1], the AC50 was 0.116 µM [rising, full curve, poor fit].

Take `C=CCn1c(SCc2cc(=O)n3ccsc3n2)nc2scc(C3CC3)c2c1=O`: the concentration at half-maximal activity (AC50) under setting [1] is 7.08 µM [falling, partial curve, poor fit].

In the case of `COc1ccc(NC(=O)c2noc(C(C)C)c2[N+](=O)[O-])cc1`, the AC50 under setting [1] is 2.82 µM [rising, single point].

As for `CN(C)CCCN1c2ccccc2CCc2ccc(Cl)cc21`, under setting [1], the AC50 was 17.8 µM [falling, single point].

In the case of `COc1ccc(C2/C=C\CN(C(=O)c3ccccc3)CC(=O)N2Cc2cccc(F)c2)cc1` (configuration not stated), the AC50 under setting [1] is 5.17 µM [rising, single point].

On to `O=[N+]([O-])c1cnccc1Nc1ccccc1`, for which the AC50 under setting [1] is 20.6 µM [rising, single point].

With `O=C(NCc1ccccn1)Nc1cc(Cl)ccc1Cl`, the half-maximal activity concentration (AC50) under setting [1] is 0.501 µM [rising, full curve, poor fit].

`c1ccc2cc3[nH]c(CN4CCCCC4)nc3cc2c1`: the half-maximal activity concentration (AC50) under setting [1] was 9.2 µM [falling, partial curve].

Turning to `COC(=O)c1cccc(Nc2cc(C)nc(-c3ccccc3O)n2)c1`, the AC50 under setting [1] was 2.59 µM [falling, full curve].

Regarding `O=[N+]([O-])c1ccc(Cc2nnc(-c3ccccc3Cl)o2)cc1`, the AC50 under setting [1] was 7.08 µM [falling, full curve].

Turning to `COc1ccc(/C=N/NC(=O)c2cccc(NC(=O)c3ccccc3Cl)c2)c(OC)c1`, the half-maximal activity concentration (AC50) under setting [1] was 15.8 µM [falling, single point].

For `COc1ccc(-c2cn[nH]c2N)cc1`, the AC50 under setting [1] is 1.16 µM [falling, full curve, poor fit].

`Cc1nnc(SCCC#N)n(CCC#N)c1=O`: the AC50 under setting [1] is 29.1 µM [rising, single point].

As to `Cn1c2c(c3ccccc31)CC/C2=N\O`, the AC50 runs as follows: under setting [1], 2.06 µM [rising, full curve, poor fit]; under setting [2], 6.51 µM [falling, partial curve, poor fit].

As to `O=C1CCCN1CC(CN1CCOCC1)Sc1nc2ccccc2c(=O)n1-c1ccccc1` (configuration not stated), the AC50 under setting [1] is 7.08 µM [rising, partial curve, poor fit].

Turning to `COc1ccc(NC2=NCC(Cc3ccc(Br)cc3)S2)cc1` (configuration not stated), the AC50 under setting [2] is 18.4 µM [falling, partial curve, poor fit].

Consider `Cc1c(NC(=O)CCCN2C(=O)c3cccc4cccc(c34)C2=O)c(=O)n(-c2ccccc2)n1C`, for which the half-maximal activity concentration (AC50) under setting [1] was 4.47 µM [rising, full curve, poor fit].

`COc1cc(-c2noc(-c3ccco3)n2)cc(OC)c1OC`: the AC50 under setting [1] is 5.01 µM [rising, full curve].

Regarding `C=CCn1c(NCc2ccccc2OC)nc2ccccc21`, the concentration at half-maximal activity (AC50) under setting [1] was 15.8 µM [falling, single point].

As for `N#Cc1ccsc1NC(=O)CN1CCN(c2ccccc2)CC1`, the AC50 under setting [1] is 20.6 µM [rising, single point].

For `O=C(O)CC(c1cccc([N+](=O)[O-])c1)N1Cc2ccccc2C1=O` (configuration not stated), the half-maximal activity concentration (AC50) under setting [1] was 35.5 µM [rising, single point].

As to `O=C(Cc1ccc([N+](=O)[O-])cc1)N1N=C(C2CC2)CC1(O)C(F)(F)F` (configuration not stated), the half-maximal activity concentration (AC50) under setting [1] was 0.126 µM [rising, full curve, poor fit].

Turning to `Cc1cc2nc(-c3ccc(NC(=O)C(C)C)cc3)oc2cc1C`, the concentration at half-maximal activity (AC50) under setting [1] is 29.1 µM [rising, single point].

For `CC(C)Cc1nc(Nc2ccc(S(=O)(=O)N3CCCC3)cc2)c2nnn(Cc3ccccc3)c2n1`, the AC50 was 2.91 µM [falling, full curve, poor fit] under setting [1] and 2.91 µM [rising, full curve] under setting [2].

As to `COc1cccc(NC(=O)CSc2nnc(-c3ccoc3C)n2-c2ccccc2)c1`, the half-maximal activity concentration (AC50) under setting [1] was 20.6 µM [falling, single point] and the half-maximal activity concentration (AC50) under setting [2] was 8.2 µM [rising, partial curve, poor fit].

Regarding `COC(=O)c1c(C)oc2ccc(NS(=O)(=O)c3cc(OC)ccc3OC)cc12`, under setting [2], the concentration at half-maximal activity (AC50) is 6.51 µM [rising, partial curve, poor fit].

Regarding `O=C(NCCCCc1ccccc1)c1cccc(Br)c1`, the AC50 under setting [1] was 4.47 µM [falling, partial curve, poor fit].
